Assay results: US8389717B2
The structures given here were assigned with low confidence; some may be wrong.

Molecular target: γ-secretase (Homo sapiens, UniProt P49768)
Test: Cellular assay: inhibition of Aβ42 secretion in H4 cells overexpressing human APP
Conditions: read-out: IC50 in vitro, human neuroglioma H4 cells overexpressing human APP, 22 hrs incubation
Experimental: Human neuroglioma H4 cells overexpressing human APP were plated at 30,000 cells/well/200 μl in 96-well plates in IMDM media containing 10% FCS, 0.2 mg/l Hygromycin B and incubated for 2 h at 37° C., 5% CO2 prior to adding test compounds.
Compounds for testing were dissolved in 100% Me2SO yielding in a 10 mM stock solution. Typically 12 μl of these solutions were further diluted in 1000 μl of IMDM media (w/o FCS,). Sub sequential 1:1 dilutions gave a ten point dose response curve. 100 μl of each dilution was added to the cells in 96-well plates. Appropriate controls using vehicle only and reference compound were applied to this assay. The final concentration of Me2SO was 0.4%. After incubation for 22 hrs at 37° C., 5% CO2, 50 μl supernatant was transferred into round-bottom 96-well polypropylene plates for detection of Aβ42. 50 μl assay buffer (50 mM Tris/C1, pH 7.4, 60 mM NaCl, 0.5% BSA, 1% TWEEN 20) was added to the wells followed by the addition of 100 μl of detection antibody (ruthenylated Aβ42-specific antibody BAP15 0.0625 μg/mL in assay buffer). […] Assay plates were incubated on a shaker for 3 hrs at room temperature and finally read in the Bioveris M8 Analyser according to the manufacturer's instructions (Bioveris).
IC50 values for inhibition of Aβ42 secretion were calculated by nonlinear regression fit analysis using XLfit 4.0 software (IDBS).

In the case of `COc1nc(Nc2ccc(-n3cnc(C)c3)c(OC)c2)nc(Oc2ccc(F)cc2)n1`, the IC50 is reported as 870 nM.
